Assay results from article PMC10783502.
Results are given in words; binding and its absence hold for the method and conditions named. In cells and extracts the contact can be indirect. These calls come from enrichment with a bait or labelling near it, and not all partners need be listed.

The chains behind the UniProt entries cited, without tags or fusion partners. Where a name states a change or a piece, a line headed by the entry shows the natural chain unless it says otherwise.
UniProt Q9ZU66: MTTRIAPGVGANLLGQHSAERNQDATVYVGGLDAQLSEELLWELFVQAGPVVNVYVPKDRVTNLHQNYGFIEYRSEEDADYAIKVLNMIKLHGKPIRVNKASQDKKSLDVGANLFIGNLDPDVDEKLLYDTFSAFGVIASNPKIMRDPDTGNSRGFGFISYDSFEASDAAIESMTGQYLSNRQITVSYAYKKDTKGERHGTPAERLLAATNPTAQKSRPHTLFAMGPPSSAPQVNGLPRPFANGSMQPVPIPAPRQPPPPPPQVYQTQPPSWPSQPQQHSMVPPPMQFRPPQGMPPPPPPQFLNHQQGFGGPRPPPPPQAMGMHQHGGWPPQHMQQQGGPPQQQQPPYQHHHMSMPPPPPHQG

Target: MYC-JANUS (Arabidopsis) (UniProt Q9ZU66)
Assay: affinity purification with mass spectrometry; MYC-JANUS immunoprecipitated with anti-MYC antibodies from transgenic plants harboring p35S::MYC-JANUS; same IP from Col-0 as negative control

| binding | Binder |
| --- | --- |
| binds | PRL1 (protein, UniProt Q42384 1-486) MPAPTTEIEPIEAQSLKKLSLKSLKRSLELFSPVHGQFPPPDPEAKQIRLSHKMKVAFGGVEPVVSQPPRQPDRINEQPGPSNALSLAAPEGSKSTQKGATESAIVVGPTLLRPILPKGLNYTGSSGKSTTIIPANVSSYQRNLSTAALMERIPSRWPRPEWHAPWKNYRVIQGHLGWVRSVAFDPSNEWFCTGSADRTIKIWDVATGVLKLTLTGHIEQVRGLAVSNRHTYMFSAGDDKQVKCWDLEQNKVIRSYHGHLSGVYCLALHPTLDVLLTGGRDSVCRVWDIRTKMQIFALSGHDNTVCSVFTRPTDPQVVTGSHDTTIKFWDLRYGKTMSTLTHHKKSVRAMTLHPKENAFASASADNTKKFSLPKGEFCHNMLSQQKTIINAMAVNEDGVMVTGGDNGSIWFWDWKSGHSFQQSETIVQPGSLESEAGIYAACYDNTGSRLVTCEADKTIKMWKEDENATPETHPINFKPPKEIRRF |
| binds | CDC5 (protein, UniProt P92948 1-844) MRIMIKGGVWKNTEDEILKAAVMKYGKNQWARISSLLVRKSAKQCKARWYEWLDPSIKKTEWTREEDEKLLHLAKLLPTQWRTIAPIVGRTPSQCLERYEKLLDAACTKDENYDAADDPRKLRPGEIDPNPEAKPARPDPVDMDEDEKEMLSEARARLANTRGKKAKRKAREKQLEEARRLASLQKRRELKAAGIDGRHRKRKRKGIDYNAEIPFEKRAPAGFYDTADEDRPADQVKFPTTIEELEGKRRADVEAHLRKQDVARNKIAQRQDAPAAILQANKLNDPEVVRKRSKLMLPPPQISDHELEEIAKMGYASDLLAENEELTEGSAATRALLANYSQTPRQGMTPMRTPQRTPAGKGDAIMMEAENLARLRDSQTPLLGGENPELHPSDFTGVTPRKKEIQTPNPMLTPSMTPGGAGLTPRIGLTPSRDGSSFSMTPKGTPFRDELHINEDMDMHESAKLERQRREEARRSLRSGLTGLPQPKNEYQIVAQPPPEESEEPEEKIEEDMSDRIAREKAEEEARQQALLKKRSKVLQRDLPRPPAASLAVIRNSLLSADGDKSSVVPPTPIEVADKMVREELLQLLEHDNAKYPLDDKAEKKKGAKNRTNRSASQVLAIDDFDENELQEADKMIKEEGKFLCVSMGHENKTLDDFVEAHNTCVNDLMYFPTRSAYELSSVAGNADKVAAFQEEMENVRKKMEEDEKKAEHMKAKYKTYTKGHERRAETVWTQIEATLKQAEIGGTEVECFKALKRQEEMAASFRKKNLQEEVIKQKETESKLQTRYGNMLAMVEKAEEIMVGFRAQALKKQEDVEDSHKLKEAKLATGEEEDIAIAMEASA |
| binds | SERRATE (protein, UniProt Q9ZVD0 1-720) MADVNLPPSDSVDNRLPEKSTSSSPPPPPPSSSLPQQEQEQDQQQLPLRRERDSRERRDERDIERPPPNRRERDRSPLPPPRRDYKRRPSLSPPPPYRDRRHSPPQRRSPPQKRYRRDDNGYDGRRGSPRGGYGPPDRRFGYDHGGGYDREMGGRPGYGDERPHGRFMGRYQDWEGGRGGYGDASNSGNPQRDGLMSYKQFIQELEDDILPSEAERRYQEYKSEYITTQKRAFFNTHKEEDWLKNKYHPTNLLSVIERRNDLAQKVAKDFLLDLQSGTLDLGPAVTALNKSGRTSEPNSEDEAAGVGKRKRHGMGGAKENELLSAAPKAPSFTSDPKRILTDVEQTQALVRKLDSEKKIEENVLQGSETEKSGREKLHSGSTGPVVIIRGLTSVKGLEGVELLDTLVTYLWRVHGLDYYGKVETNEAKGLRHVRAEGKVSDAKGDENESKFDSHWQERLKGQDPLEVMAAKEKIDAAATEALDPHVRKIRDEKYGWKYGCGAKGCTKLFHAAEFVYKHLKLKHTELVTELTTKVREELYFQNYMNDPNAPGGQPATQQSGPRDRPIRRKPSMENRLRDDRGGRRERDGRANGNDRNDRSEDQQRGDNDGGNPGEVGYDAFGGQGGVHVPPFLSDINPPPMLMPVPGAGPLGPFVPAPPEVAMQMFRDPSGPNPPFEGSGRGGPAPFLLSPAFRQDPRRLRSYQDLDAPEEEVTVIDYRSL |
